Values of other authors in patent US7872041B2, “Use of rotigotine for treating and preventing Parkinson's plus syndrome” (priority 2004, dated 2011).

Conditions: Wenning et al, Lancet 2004; bromocriptine trial with six patients, lisuride controlled trial; cited from earlier work

Compound: CCN(CC)C(=O)N[C@H]1C=C2c3cccc4[nH]cc(c34)C[C@H]2N(C)C1 [lisuride]
- Therapeutic efficacy in Parkinson's plus syndrome: no efficacy
